# PubChem BioAssay (NCATS)
# Protein sequences, listed by entry. Tags and fused reporters are not part of them. Lines headed by an entry give the natural chain unless they say otherwise; changes in a name come on top.
# UniProt P50135: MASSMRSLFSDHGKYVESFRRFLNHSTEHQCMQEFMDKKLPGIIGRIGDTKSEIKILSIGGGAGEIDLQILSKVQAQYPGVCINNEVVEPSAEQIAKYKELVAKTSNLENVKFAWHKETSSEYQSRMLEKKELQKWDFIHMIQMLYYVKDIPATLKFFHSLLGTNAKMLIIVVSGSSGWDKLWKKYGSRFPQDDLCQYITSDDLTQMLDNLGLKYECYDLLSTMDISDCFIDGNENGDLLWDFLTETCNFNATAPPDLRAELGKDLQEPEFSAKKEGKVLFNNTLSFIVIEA
# Several values for one entry are separate records, joined by “and”; a condition that tells them apart may be missing. Equal values may be shown once. This is one part of the list. Shown are side measurements of this screen, not its main read-out; they come without a call. For part of these data: Compounds called inactive in the main read-out are mostly missing here. For part of these data: Potencies come from curve fits of mixed quality, noted in brackets.
# Columns and labels:
# [1] = qHTS Assay for Inhibitors of PDE-IV (AID 607); conditions: HEK293 ACTOne CNG channel cells, membrane potential fluorescence; measured here: parental cell counter-screen
# How it was run: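 Cell-based read-out of cAMP via a modified cyclic nucleotide-gated channel and membrane potential dye (535/590 nm) in HEK293 cells expressing PDE4 endogenously. Compounds tested up to 22.9 uM final; 100 uM RO 20-1724 reference.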
# [2] = Validation of Assay for Modulators of Lamin A Splicing (AID 1459); conditions: Lamin A splicing dual RFP/GFP fluorescence reporter, ratio
# How it was run: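 S3 HeLa stably expressing lamin A-EGFP splicing minigene and DsRed2, 600 cells/well in Opti-MEM with 2% FBS, treated 48 h at 37C; laser-scanning cytometry gives GFP/RFP total intensity ratio; ancitabine positive control, 0.5% DMSO vehicle.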
# [3] = qHTS Assay for Lipid Storage Modulators (AID 1519); conditions: Drosophila S3 cells, BODIPY lipid droplet/cell ratio, laser cytometry, cells loaded with oleic acid
# How it was run: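 Cells seeded at 5,000 per well were treated with compounds over a concentration series and loaded with oleic acid (400 uM, as added). Lipid droplet fluorescence (488 nm excitation, 500-530 nm channel) was read by laser-scanning cytometry and normalized to 20 uM Triacsin C.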
# [4] = qHTS Assay for Modulators of Human Peripheral Myelin Protein 22 (PMP22) Expression/Activity (AID 1967); conditions: Cell-based PMP22 reporter, dual-color luciferase ratio
# How it was run: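 Mouse MSC80 Schwann cells carrying Pmp22 promoter–green click beetle luciferase plus EF-alpha–red luciferase control, dosed 24 h at 37 °C. Dual-filter luminescence, overlap-corrected; %Activity from green/red ratio normalised to untreated cells, concentration-response curves fitted.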
# [5] = qHTS Validation Assay to Find Inhibitors of Chronic Active B-Cell Receptor Signaling (AID 485345); conditions: ABC-DLBCL cells, chronic BCR signaling reporter
# How it was run: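 TMD8 ABC-DLBCL cells with dox-inducible green luciferase–IκBα fusion and red native luciferase; compounds 46 uM–3 nM, 4 h at 37C with doxycycline in 0.5% FBS IMDM. Green/red ratio normalized to basal and 10 uM MG-132.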
# [6] = S16 Schwann cell PMP22 intronic element beta-lactamase assay (AID 624044); conditions: S16 rat Schwann cells, PMP22 element beta-lactamase FRET, 24 h; measured here: 460 nm blue channel
# How it was run: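 Rat S16 Schwann cells with beta-Lac driven by a PMP22 intronic element, compound-treated 24 h at 37 °C. LiveBLAzer FRET B/G read: 460 nm normalized to potassium clavulanate vs DMSO; 535 nm FRET as viability; concentration-effect curves classified.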
# [7] = A High-Content qHTS Against Drug Library for the Identification of Small Molecules that Inhibit DYT1 Early Onset Primary Dystonia-Associated Cell Pathology (AID 1645839); conditions: HEK293 Flp-In EGFP-delE TorsinA, punctate imaging, 48 h; measured here: cell count cytotoxicity
# How it was run: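 Readout: %pathology, the punctate EGFP-TorsinA distribution from imaging, as the primary channel and cell count as the toxicity counterscreen. HEK293 Flp-In cells expressing delE TorsinA were induced with tetracycline and treated with compound for 48 h.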
# [8] = molecular target: Histamine N-methyltransferase (Homo sapiens) (UniProt P50135); experiment: Confirmatory Screen for Target Class Profiling of Small Molecule Inhibitors of Methyltransferases (AID 1745852); conditions: MTase-Glo luminescence, SAH detection, recombinant enzyme; measured here: HNMT inhibition potency
# [9] = Nrf2 qHTS screen for inhibitors: Validation (AID 493153); conditions: A549 ARE-Fluc reporter, 18-24 h; AC50: CellTiter-Fluor fluorescence read, measured here: cytotoxicity CellTiter-Fluor AC50; viability change: measured here: cytotoxicity max response
# How it was run: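 Dose-response validation uses reporter A549 cells with firefly luciferase under an antioxidant response element. Compounds stay on cells 18-24 h at 37°C, and luminescence indicates Nrf2-driven transcription.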
# [10] = qHTS for identification of novel therapeutic agents for treatment of microphthalmiaassociated transcription factor (MiT) renal cell carcinoma (RCC) (AID 1963991); conditions: CellTiter-Glo, 48 h; for z-score: stronger effect = lower value
# How it was run: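 Curves over 11 concentrations were fitted to CellTiter-Glo luminescence, scaled between empty wells (0%) and DMSO (100%) viability. Cells were UOK109, UOK124 and UOK145 TFE3-fusion RCC lines at 500/well, exposed 48 hours at 37 C.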
# [11] = qHTS drug screen for cell cycle checkpoint inhibitors in PARPi-resistant BRCA-mutant ovarian cancer cell lines. (AID 1963452); conditions: PEO1/OlaR viability, CellTiter-Glo luminescence, 96 h; measured here: PEO1 parental viability
# How it was run: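 PEO1, PEO4 and PEO1/OlaR ovarian cancer cells, 600 per well, exposed 96 h at 37C to a dilution series. Viability read by CellTiter-Glo luminescence, normalized to DMSO and empty wells; activity summarized as Z-AUC.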
# [12] = Cell-based coincidence reporter assay to measure PMP22 gene transcription in S16 Pmp22-F2sN cells - Confirmatory screen (AID 1508646); conditions: S16 Schwann cells Pmp22-F2sN, dual luciferase, 24 h
# How it was run: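 S16 Schwann cells carrying a bioluminescent reporter in the Pmp22 3' UTR (Pmp22-F2sN) were treated with compounds for 24 h at 37C, then lysed; FLuc and then NLuc luminescence were read sequentially with a dual-luciferase kit on a CCD imager.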
# [13] = qHTS assay for small molecule antagonists of peroxisome proliferator-activated receptor delta signaling (AID 588535); conditions: HEK293T PPARd-UAS-bla, beta-lactamase FRET ratio, 18 h; 460 nm channel;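 further: cells co-treated with a PPAR-delta agonist as stimulator during compound exposure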
# How it was run: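 GeneBLAzer PPAR-delta-UAS-bla HEK293T cells in medium with 2% charcoal/dextran FBS were preincubated 5 hrs at 37 C, then given compounds, incubated 18 hrs at 37 C, and read by CCF4 beta-lactamase fluorescence; IC50 from Hill fits.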
# [14] = qHTS assay for small molecule antagonists of vitamin D receptor signaling (AID 588541); conditions: HEK293T VDR-UAS-bla, beta-lactamase ratio, antagonist mode; measured here: W460 blue channel (cell viability)
# [15] = qHTS assay for small molecule agonists of retinoid X receptor alpha signaling (AID 588544); conditions: HEK293T RXRa-UAS-bla, beta-lactamase reporter, 18 h; 530 nm emission
# [16] = measured here: cell count channel max response
# [17] = measured here: cell number channel AC50
# [18] = measured here: lipid (BODIPY) channel AC50
# [19] = measured here: lipid channel max response
# [20] = measured here: green reporter channel AC50, mouse Pmp22 promoter in mouse Schwann cells
# [21] = measured here: red reporter channel AC50, EF-alpha promoter control reporter in MSC80 mouse Schwann cells
# [22] = measured here: CBR control luciferase (viability counter)
# [23] = measured here: NLuc reporter channel
# [24] = measured here: FLuc reporter channel
structure (smiles),measurement,setting,value
CCCN(CC1CC1)c1nc(C)nc(Nc2c(Cl)cc(Cl)cc2Cl)c1Cl,AC50,[1],"20 µM [rising, single point]"
same,AC50,[2]; measured here: GFP channel,"35.5 µM [rising, single point]"
same,max response,[3]; [16],69.6%
same,AC50,[3]; [17],"3.16 µM [rising, full curve]"
same,AC50,[3]; [18],"3.16 µM [rising, full curve]"
same,max response,[3]; [19],95.8%
same,AC50,[4]; [20],"84.9 µM [falling, single point]"
same,AC50,[4]; [21],"95.3 µM [falling, single point]"
CCCn1c(=O)c2[nH]c(C3CCCC3)nc2n(CCC)c1=O,AC50,[2]; measured here: RFP channel,"17.8 µM [falling, single point]"
same,max response,[3]; [16],86.8% and 52.4%
same,AC50,[3]; [17],"14.1 µM [rising, partial curve]"
same,AC50,[3]; [18],"14.1 µM [rising, partial curve]"
same,max response,[3]; [19],110% and 50.1%
same,AC50,[4]; [21],"84.9 µM [falling, partial curve]"
same,AC50,[5]; [22],"0.0651 µM [falling, full curve]"
CNCCCC1c2ccccc2C=Cc2ccccc21,AC50,[2]; measured here: GFP channel,"17.8 µM [falling, single point]"
same,AC50,[4]; [20],"23.9 µM [falling, full curve]"
same,AC50,[4]; [21],"30.1 µM [falling, full curve]"
same,AC50,[6],"10.7 µM [falling, single point]"
same,AC50,[7],"3.55 µM [falling, full curve]"
Cc1c(OCC(F)(F)F)ccnc1CS(=O)c1nc2ccccc2[nH]1 (centres undefined),AC50,[2]; measured here: GFP channel,"12.6 µM [falling, partial curve, poor fit]"
same,max response,[3]; [16],-23.2%
same,max response,[3]; [19],-24.5%
same,IC50,[8],"21.7 µM [falling, partial curve]"
COc1ccccc1N1CCN(CCN(C(=O)C2CCCCC2)c2ccccn2)CC1,AC50,[2]; measured here: RFP channel,"10 µM [falling, partial curve]"
same,max response,[3]; [16],50.5%
same,max response,[3]; [19],48.8%
same,viability change,[9],-8.53%
same,z-score,"[10]; TFE3-RCC UOK109 viability, measured here: UOK109 Z-AUC",0.384
same,z-score,"[10]; TFE3-RCC viability, measured here: UOK124 Z-AUC",0.435
same,z-score,"[10]; TFE3-RCC viability, measured here: UOK145 Z-AUC",0.286
same,AC50,"[10]; TFE3-RCC viability, measured here: UOK145 cell viability","18.7 µM [falling, partial curve]"
O=S(=O)(NCCNC/C=C/c1ccc(Br)cc1)c1cccc2cnccc12,AC50,[2]; measured here: RFP channel,"31.6 µM [falling, single point]"
same,AC50,[11],"15.5 µM [falling, single point]"
Cn1c(=O)c2c(-c3ccccc3Br)n(C(C)(C)C)cc2n(C)c1=O,AC50,[12]; [23],"8.62 µM [falling, partial curve, poor fit]"
CN(C1CCCCC1)S(=O)(=O)c1ccc2c(c1)c(=O)c(C(=O)NCc1ccc(Cl)cc1)cn2C,AC50,[12]; [24],"17.2 µM [falling, partial curve, poor fit]"
COc1ccc2c(c1)c(CC(=O)O)c(C)n2Cc1ccc(Cl)cc1,AC50,[2]; measured here: GFP channel,"25.1 µM [rising, partial curve, poor fit]"
same,AC50,[4]; [20],"5.36 µM [rising, full curve, poor fit]"
same,AC50,[4]; [21],"75.7 µM [falling, partial curve, poor fit]"
same,viability change,[9],1.29%
O=c1[nH]c2ccccc2c2ccccc12,AC50,[2]; measured here: GFP channel,"15.8 µM [rising, single point]"
same,AC50,[4]; [21],"67.5 µM [falling, partial curve]"
same,AC50,[5]; [22],"5.17 µM [falling, partial curve, poor fit]"
same,viability change,[9],-14.9%
Cc1oc(-c2ccc(Cl)cc2)nc1CN1CCCC(C(=O)NCCc2ccccc2)C1 (centres undefined),AC50,[12]; [23],"43.2 µM [falling, single point]"
Cc1ccc(Nc2cc(C(=O)NC3CCCC3)c3ccccc3n2)cc1C,AC50,[12]; [23],"21.7 µM [falling, partial curve]"
CC1CNCCN1S(=O)(=O)c1cccc2cnccc12 (centres undefined),AC50,[2]; measured here: RFP channel,"20 µM [falling, single point]"
same,AC50,[4]; [20],"95.3 µM [falling, single point]"
same,AC50,[4]; [21],"60.1 µM [falling, partial curve]"
same,AC50,[5]; [22],"18.4 µM [falling, partial curve]"
same,viability change,[9],-17.1%
COc1ccc(-c2c(C)nn3c(N4CCN(c5cc(Cl)ccc5C)CC4)cc(C)nc23)cc1OC,AC50,[12]; [24],"17.2 µM [falling, partial curve, poor fit]"
O=C(/C=C/c1ccc(O)c(O)c1)OCCc1ccccc1,AC50,[2]; measured here: GFP channel,"3.55 µM [rising, full curve, poor fit]"
same,AC50,[4]; [21],"37.9 µM [falling, partial curve, poor fit]"
same,AC50,[5]; measured here: CBG/CBR ratio read-out,"14.6 µM [falling, partial curve]"
same,AC50,[5]; [22],"8.2 µM [falling, partial curve]"
CC#CCOC(=O)c1c(C)nc2sc3c(c2c1N)CCC(O)C3 (centres undefined),AC50,[2]; measured here: GFP channel,"1.41 µM [rising, partial curve, poor fit]"
same,AC50,[4]; [21],"42.6 µM [falling, partial curve]"
same,viability change,[9],-4.92%
COc1ccc(C2CC(=O)N(CC(=O)Nc3cccc(C)c3C)c3ccccc3S2)cc1OC (centres undefined),AC50,[12]; [24],"21.7 µM [falling, partial curve]"
CCCc1c(OCCCOc2ccc(OCC(=O)O)cc2)ccc(C(C)=O)c1O,AC50,[2]; measured here: GFP channel,"22.4 µM [rising, single point]"
same,viability change,[9],-1.1%
same,max response,[13],187%
same,AC50,[14],"14.1 µM [rising, full curve, poor fit]"
same,max response,[15],40.7%
Cc1cccc(N2CCN(C(=O)C3CCN(S(=O)(=O)c4ccc5c(c4)oc(=O)n5C)CC3)CC2)c1C,AC50,[12]; [23],"2.73 µM [falling, partial curve, poor fit]"
CC#C[C@]1(O)CC[C@H]2C3CCC4=CC(=O)CCC4=C3[C@@H](c3ccc(N(C)C)cc3)C[C@@]21C (some centres undefined),AC50,[2]; measured here: RFP channel,"20 µM [falling, partial curve, poor fit]"
same,AC50,[4]; [20],"26.9 µM [falling, full curve]"
same,AC50,[4]; [21],"30.1 µM [falling, full curve]"

# Rewritten as tab-separated lines: part of the list above
structure (smiles)	measurement	setting	value
CCCN(CC1CC1)c1nc(C)nc(Nc2c(Cl)cc(Cl)cc2Cl)c1Cl	AC50	[3]; [18]	3.16 µM [rising, full curve]
same	max response	[3]; [19]	95.8%
same	AC50	[4]; [20]	84.9 µM [falling, single point]
same	AC50	[4]; [21]	95.3 µM [falling, single point]
CCCn1c(=O)c2[nH]c(C3CCCC3)nc2n(CCC)c1=O	AC50	[2]; measured here: RFP channel	17.8 µM [falling, single point]
